The text below walks through data of patent publication US20030091584A1.

These are yes or no findings as the source states them, for the method shown. Some results given as binding are weak or reduced against the parent protein; the word gives no strength.

Substrate in the test: F protein of RSV A/Long MARM with K272Q (respiratory syncytial virus strain A/Long) (UniProt P12568)
Kind of test: IFA on HEp-2 cells infected with MARM B9.

B1: A4B4 (monoclonal antibody) (antibody, V domains shown)
VH: QVTLRESGPALVKPTQTLTLTCTFSGFSLSTAGMSVGWIRQPPGKALEWLADIWWDDKKHYNPSLKDRLTISKDTSKNQVVLKVTNMDPADTATYYCARDMIFNFYFDVWGQGTTVTVSS
VL: DIQMTQSPSTLSASVGDRVTITCSASSRVGYMHWYQQKPGKAPKLLIYDTFFLDSGVPSRFSGSGSGTEFTLTISSLQPDDFATYYCFQGSGYPFTFGGGTKLEIK
B1: the binding result is reported as “binds”.
